Molecular target: 2F5 monoclonal antibody (human)
Assay: SPR

B1: 2F5 epitope scaffold ES2 (designed binder)
chain: SDPVRQYLHEIGEVLELDKWAELGAAAKVEEGMEAIKKLSEATGLDQELIREVVRAKILGTAAIQKIPGLKEKPDPKTVEEVDGKLKSLPKELKRYLHIAREGEAARQHLIEANLRLVVSIAKKYTGRGLSFLDLIQEGNQGLIRAVEKFEYKRGFAFSTYATWWIRQAINRAIADQAR
Which koff does the source give for B1 here?
The koff was 0.00143 s⁻¹.

From paper PMC3027617 (2011)
